No constants are given. Whether binding was seen depends on the method and setting. Binding seen in cells or lysates may run through a third protein. A yes stands for co-enrichment or nearness to the bait. Other partners may have been found.
Molecular target: endogenous CHD4 (chromodomain-helicase-DNA-binding protein 4) with a 3xFlag tag knocked in (human (endogenous in RH4)) (UniProt Q14839)
Assay: affinity purification with mass spectrometry; anti-Flag (M2) on Protein G Dynabeads, overnight with nuclear extracts of RH4 N-CHD4 and C-CHD4 knock-in lines (lysis buffer 50 mM HEPES pH 7.8, 3 mM MgCl2, 300 mM NaCl, with benzonase, 4°C); eluted with 3xFlag peptide; LC-MS; scored with SAINTexpress against RH4 wildtype and CRAPome controls (fold change at least 2, SAINT score above 0.6)

Protein sequences, listed by entry. Tags and fused reporters are not part of them.
UniProt Q14839: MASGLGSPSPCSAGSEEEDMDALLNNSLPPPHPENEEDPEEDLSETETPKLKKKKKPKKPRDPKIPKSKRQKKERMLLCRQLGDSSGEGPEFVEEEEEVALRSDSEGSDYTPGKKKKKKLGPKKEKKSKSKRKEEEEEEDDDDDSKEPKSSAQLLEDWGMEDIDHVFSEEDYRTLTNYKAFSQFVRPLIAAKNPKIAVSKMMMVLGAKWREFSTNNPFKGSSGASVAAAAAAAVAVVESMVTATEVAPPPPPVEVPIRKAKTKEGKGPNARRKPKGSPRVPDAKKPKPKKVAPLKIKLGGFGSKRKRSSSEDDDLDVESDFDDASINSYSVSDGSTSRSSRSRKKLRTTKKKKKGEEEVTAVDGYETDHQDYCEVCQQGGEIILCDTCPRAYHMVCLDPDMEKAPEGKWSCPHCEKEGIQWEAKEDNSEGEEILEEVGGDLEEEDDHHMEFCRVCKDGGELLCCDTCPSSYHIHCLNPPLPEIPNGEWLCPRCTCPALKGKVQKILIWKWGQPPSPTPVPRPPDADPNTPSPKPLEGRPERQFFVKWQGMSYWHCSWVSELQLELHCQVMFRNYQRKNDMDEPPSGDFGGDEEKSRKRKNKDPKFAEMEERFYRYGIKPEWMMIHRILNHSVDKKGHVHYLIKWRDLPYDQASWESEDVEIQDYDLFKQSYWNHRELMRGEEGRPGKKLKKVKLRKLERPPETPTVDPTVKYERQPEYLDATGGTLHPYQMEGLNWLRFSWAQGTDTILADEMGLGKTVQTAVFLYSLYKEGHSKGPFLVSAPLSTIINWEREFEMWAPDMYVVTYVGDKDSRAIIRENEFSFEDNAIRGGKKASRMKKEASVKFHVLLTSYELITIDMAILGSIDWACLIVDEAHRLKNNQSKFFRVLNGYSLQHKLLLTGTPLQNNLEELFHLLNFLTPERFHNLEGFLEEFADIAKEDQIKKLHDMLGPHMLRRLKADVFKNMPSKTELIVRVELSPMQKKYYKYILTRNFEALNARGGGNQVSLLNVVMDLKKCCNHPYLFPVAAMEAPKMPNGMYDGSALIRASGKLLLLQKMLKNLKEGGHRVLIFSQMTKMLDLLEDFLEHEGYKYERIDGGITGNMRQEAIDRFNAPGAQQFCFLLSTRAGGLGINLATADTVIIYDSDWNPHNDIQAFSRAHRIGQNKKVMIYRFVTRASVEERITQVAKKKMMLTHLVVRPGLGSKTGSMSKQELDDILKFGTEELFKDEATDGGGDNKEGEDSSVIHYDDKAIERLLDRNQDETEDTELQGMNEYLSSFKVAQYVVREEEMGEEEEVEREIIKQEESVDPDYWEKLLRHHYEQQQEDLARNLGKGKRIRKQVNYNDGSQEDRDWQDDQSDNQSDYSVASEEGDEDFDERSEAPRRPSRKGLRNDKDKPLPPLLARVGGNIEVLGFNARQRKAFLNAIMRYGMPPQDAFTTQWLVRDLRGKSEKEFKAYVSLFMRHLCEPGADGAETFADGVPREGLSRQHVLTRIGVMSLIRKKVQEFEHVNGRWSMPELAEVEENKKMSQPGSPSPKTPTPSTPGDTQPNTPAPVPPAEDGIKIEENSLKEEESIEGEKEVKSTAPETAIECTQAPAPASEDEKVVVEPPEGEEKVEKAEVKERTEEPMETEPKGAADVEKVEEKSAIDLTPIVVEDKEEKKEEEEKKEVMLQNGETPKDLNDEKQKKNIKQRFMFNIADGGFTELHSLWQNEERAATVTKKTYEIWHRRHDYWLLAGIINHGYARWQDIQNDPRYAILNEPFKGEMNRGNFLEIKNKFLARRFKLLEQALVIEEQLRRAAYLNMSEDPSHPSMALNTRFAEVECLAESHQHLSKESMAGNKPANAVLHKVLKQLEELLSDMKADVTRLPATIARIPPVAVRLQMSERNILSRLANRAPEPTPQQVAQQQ
UniProt P25440: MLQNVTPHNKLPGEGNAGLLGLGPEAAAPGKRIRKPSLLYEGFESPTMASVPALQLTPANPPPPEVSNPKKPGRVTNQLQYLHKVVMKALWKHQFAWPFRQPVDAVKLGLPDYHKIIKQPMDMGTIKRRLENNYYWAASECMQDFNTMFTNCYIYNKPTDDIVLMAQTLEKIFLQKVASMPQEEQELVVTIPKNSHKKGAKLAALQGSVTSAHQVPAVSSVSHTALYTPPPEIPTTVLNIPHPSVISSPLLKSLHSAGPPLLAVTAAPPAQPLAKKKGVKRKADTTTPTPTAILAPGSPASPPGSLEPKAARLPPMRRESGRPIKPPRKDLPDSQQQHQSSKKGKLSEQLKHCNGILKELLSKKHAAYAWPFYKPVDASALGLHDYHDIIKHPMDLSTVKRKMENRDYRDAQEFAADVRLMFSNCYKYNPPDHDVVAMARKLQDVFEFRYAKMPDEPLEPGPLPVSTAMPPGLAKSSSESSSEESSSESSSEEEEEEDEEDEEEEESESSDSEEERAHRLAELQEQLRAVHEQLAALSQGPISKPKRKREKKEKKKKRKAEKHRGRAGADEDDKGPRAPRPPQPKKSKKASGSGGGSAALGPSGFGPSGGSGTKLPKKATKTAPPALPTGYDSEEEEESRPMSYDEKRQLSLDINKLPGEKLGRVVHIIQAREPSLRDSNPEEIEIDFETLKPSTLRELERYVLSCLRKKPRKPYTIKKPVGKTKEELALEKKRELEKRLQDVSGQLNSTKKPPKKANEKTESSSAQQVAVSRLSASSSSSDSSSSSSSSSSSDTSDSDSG
UniProt Q9H9B1: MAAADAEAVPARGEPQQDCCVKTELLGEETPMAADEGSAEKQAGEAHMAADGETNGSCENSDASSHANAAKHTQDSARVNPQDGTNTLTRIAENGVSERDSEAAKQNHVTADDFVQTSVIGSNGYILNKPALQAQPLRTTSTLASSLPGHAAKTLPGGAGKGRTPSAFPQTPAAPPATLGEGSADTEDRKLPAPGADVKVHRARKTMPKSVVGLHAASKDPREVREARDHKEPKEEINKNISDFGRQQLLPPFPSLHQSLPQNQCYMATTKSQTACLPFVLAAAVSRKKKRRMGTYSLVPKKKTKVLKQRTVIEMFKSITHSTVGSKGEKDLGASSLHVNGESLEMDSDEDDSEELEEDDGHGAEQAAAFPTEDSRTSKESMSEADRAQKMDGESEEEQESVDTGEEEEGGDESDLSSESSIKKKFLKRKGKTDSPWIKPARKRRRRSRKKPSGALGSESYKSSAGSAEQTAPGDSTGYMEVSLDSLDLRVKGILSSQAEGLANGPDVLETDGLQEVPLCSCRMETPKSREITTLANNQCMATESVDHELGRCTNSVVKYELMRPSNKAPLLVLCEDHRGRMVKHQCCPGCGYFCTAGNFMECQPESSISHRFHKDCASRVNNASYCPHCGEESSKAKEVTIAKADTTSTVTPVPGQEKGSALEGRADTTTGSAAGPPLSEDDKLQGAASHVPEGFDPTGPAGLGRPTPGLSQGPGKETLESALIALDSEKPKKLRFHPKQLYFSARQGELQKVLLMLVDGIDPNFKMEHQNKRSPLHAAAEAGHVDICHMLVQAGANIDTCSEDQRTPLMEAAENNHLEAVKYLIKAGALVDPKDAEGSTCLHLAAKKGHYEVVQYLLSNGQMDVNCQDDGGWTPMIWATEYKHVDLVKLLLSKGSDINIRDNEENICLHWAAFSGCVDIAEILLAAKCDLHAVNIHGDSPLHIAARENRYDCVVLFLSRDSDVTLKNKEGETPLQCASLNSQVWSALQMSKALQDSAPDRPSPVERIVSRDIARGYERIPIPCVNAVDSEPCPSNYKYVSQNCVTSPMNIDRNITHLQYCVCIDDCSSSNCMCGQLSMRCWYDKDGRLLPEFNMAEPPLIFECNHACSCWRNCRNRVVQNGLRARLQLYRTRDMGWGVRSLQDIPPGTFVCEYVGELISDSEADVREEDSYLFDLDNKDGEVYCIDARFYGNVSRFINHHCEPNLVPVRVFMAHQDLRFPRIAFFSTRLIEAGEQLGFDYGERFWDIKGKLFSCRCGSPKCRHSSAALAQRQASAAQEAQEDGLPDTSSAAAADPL
UniProt Q96KQ7: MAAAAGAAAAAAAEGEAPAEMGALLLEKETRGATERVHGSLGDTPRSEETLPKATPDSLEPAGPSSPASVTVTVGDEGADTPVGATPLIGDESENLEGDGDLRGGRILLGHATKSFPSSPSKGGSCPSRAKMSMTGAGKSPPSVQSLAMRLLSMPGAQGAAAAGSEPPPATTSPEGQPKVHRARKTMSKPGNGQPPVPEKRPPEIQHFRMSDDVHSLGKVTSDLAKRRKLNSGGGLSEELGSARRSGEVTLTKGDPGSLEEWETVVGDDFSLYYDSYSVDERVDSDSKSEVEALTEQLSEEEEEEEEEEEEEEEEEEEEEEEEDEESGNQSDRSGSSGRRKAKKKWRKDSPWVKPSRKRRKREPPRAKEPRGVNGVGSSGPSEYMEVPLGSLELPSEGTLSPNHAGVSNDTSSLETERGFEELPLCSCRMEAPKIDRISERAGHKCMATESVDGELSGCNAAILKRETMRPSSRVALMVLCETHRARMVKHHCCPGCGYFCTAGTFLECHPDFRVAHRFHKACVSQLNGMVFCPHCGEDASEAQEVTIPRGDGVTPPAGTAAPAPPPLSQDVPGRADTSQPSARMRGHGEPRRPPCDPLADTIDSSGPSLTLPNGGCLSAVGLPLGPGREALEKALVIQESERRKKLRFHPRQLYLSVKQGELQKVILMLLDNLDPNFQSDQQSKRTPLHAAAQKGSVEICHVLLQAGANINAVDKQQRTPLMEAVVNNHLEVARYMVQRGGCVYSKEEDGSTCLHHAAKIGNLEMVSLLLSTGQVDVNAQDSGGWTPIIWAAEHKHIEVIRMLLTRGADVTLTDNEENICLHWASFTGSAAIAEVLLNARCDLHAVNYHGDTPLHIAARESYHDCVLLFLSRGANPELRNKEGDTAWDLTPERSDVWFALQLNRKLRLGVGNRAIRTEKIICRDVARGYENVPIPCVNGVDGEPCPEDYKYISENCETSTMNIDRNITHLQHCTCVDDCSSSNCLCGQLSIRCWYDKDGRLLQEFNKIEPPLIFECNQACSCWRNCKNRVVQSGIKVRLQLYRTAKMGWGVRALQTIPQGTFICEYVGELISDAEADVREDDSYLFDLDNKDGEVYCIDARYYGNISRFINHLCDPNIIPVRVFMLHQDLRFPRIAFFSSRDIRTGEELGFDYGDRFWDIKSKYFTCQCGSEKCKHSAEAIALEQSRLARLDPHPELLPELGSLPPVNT

binding | Substance
binds | BRD2 (from UniProt P25440 1-801)
binds | EHMT1 (from UniProt Q9H9B1 1-1298)
binds | EHMT2 (from UniProt Q96KQ7 1-1210)
binds | KMT2A (from UniProt Q03164 1-3969)

Source: article PMC7438112
